Data source: PubChem BioAssay AID504808 (Drosophila RNAi Screening Center, 2011)
Assay: 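Genes whose loss lifts activity of an E2F-responsive reporter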 (primary screen). Cell system: Drosophila S2 cells. Reagents: long dsRNA against Drosophila genes. Measurement: 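Dual luciferase plate measurements; E2F-specific signal taken as firefly over Renilla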. Reading the numbers: E2F firefly: higher = more E2F reporter activity; Renilla normaliser: higher = more normaliser reporter signal. Active means: 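Called active if the normalised E2F reporter went up by over 50%; the cutoff is arbitrary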.
The deposit covers about 21,000 reagents; this is a random part of those that have a named target and a result. Of all reagents, 18 (0.084%) are marked active. 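Raw counts without plate normalisation, one of two replicates; the ratio scores behind the calls were not deposited.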 Reagents against one gene are numbered here. Reagent sequences are not shown. The record does not give: the amount of reagent, the time to read-out.

With knock-down of CG2841 (GeneID 44529) #1 the results were E2F firefly, rep 1 = 83273; Renilla normaliser, rep 1 = 2936; inactive.
Depletion of CG2841 (GeneID 44529) #2 came out at: E2F firefly, rep 1 = 97457; Renilla normaliser, rep 1 = 5357; inactive.
CG15306 (GeneID 31961) #1 scored E2F firefly, rep 1 = 63925; Renilla normaliser, rep 1 = 4565; inactive.
For CG15306 (GeneID 31961) #2, the entry reads E2F firefly, rep 1 = 1.08e5; Renilla normaliser, rep 1 = 8339; inactive.
Against Tmf (GeneID 31629), the entry reads E2F firefly, rep 1 = 47919; Renilla normaliser, rep 1 = 3268; inactive.
CG10903 (GeneID 40952) showed E2F firefly, rep 1 = 1.19e5; Renilla normaliser, rep 1 = 7346; inactive.
Knock-down of CG31556 (retired record) (GeneID 318800) resulted in: E2F firefly, rep 1 = 64419; Renilla normaliser, rep 1 = 3530; inactive.
Against spas (GeneID 42846), the values are E2F firefly, rep 1 = 80677; Renilla normaliser, rep 1 = 5737; inactive.
Depletion of Cht2 (GeneID 38223) resulted in: E2F firefly, rep 1 = 63496; Renilla normaliser, rep 1 = 2971; inactive.
Depletion of CG14757 (GeneID 35797) resulted in: E2F firefly, rep 1 = 1.35e5; Renilla normaliser, rep 1 = 5244; inactive.
After knock-down of exd (GeneID 32567), the record shows E2F firefly, rep 1 = 1.50e5; Renilla normaliser, rep 1 = 7412; inactive.
Silencing of bru1 (GeneID 34648) #1 resulted in: E2F firefly, rep 1 = 71045; Renilla normaliser, rep 1 = 3812; inactive.
For bru1 (GeneID 34648) #2, the entry reads E2F firefly, rep 1 = 1.04e5; Renilla normaliser, rep 1 = 4724; inactive.
After knock-down of bru1 (GeneID 34648) #3 the results were E2F firefly, rep 1 = 1.46e5; Renilla normaliser, rep 1 = 7550; inactive.
With knock-down of bru1 (GeneID 34648) #4, the screen gave E2F firefly, rep 1 = 1.31e5; Renilla normaliser, rep 1 = 6428; inactive.
Depletion of bru1 (GeneID 34648) #5 resulted in: E2F firefly, rep 1 = 65200; Renilla normaliser, rep 1 = 3365; inactive.
